Paper PMC12738788, “Structural snapshots of Pseudomonas aeruginosa LptB2FG and LptB2FGC reveal insights into lipopolysaccharide recognition and transport” (Nature Communications, 2025)
Results are given in words; binding and its absence hold for the method and conditions named. In cells and extracts the contact can be indirect. Binding calls can cover weak binding; strength is not graded here.

By UniProt entry, the sequences of proteins in these tests, tags left out. Where a name states a change or a piece, a line headed by the entry shows the natural chain unless it says otherwise.
UniProt Q9HXH5: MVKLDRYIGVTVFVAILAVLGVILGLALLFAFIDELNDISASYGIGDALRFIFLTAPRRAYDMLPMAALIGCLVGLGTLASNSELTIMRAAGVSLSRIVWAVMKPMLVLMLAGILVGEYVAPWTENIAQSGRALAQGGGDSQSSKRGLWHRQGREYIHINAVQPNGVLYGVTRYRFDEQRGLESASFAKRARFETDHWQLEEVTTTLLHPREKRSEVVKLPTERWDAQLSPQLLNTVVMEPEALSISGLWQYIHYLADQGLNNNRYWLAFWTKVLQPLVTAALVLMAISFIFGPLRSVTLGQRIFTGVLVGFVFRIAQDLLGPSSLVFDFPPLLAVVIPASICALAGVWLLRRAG
UniProt Q9HXH4: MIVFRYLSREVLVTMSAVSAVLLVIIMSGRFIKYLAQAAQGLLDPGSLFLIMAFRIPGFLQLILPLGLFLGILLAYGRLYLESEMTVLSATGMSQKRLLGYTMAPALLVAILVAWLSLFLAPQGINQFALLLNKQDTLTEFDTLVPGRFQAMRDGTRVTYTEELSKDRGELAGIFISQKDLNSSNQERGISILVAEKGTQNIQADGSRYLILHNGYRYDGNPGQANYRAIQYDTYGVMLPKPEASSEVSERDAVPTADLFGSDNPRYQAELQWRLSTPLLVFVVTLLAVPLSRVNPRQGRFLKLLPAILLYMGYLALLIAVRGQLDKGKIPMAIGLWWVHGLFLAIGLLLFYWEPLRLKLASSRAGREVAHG

Target: P. aeruginosa LptG (P. aeruginosa) (UniProt Q9HXH5)
Assay: cryo-EM structure; LptB2FG/LptB2FGC co-expressed, co-purified and delipidated, reconstituted in MSP1D1 nanodiscs with E. coli total extract lipid; 20 mM Tris-HCl pH 7.5, 100 mM NaCl; substrate-free; three LptB2FG and two LptB2FGC conformations from one sample; both purified

P. aeruginosa LptF (from UniProt Q9HXH4)
binding: binds
